Measurements reported in PubChem BioAssay AID504784 (Drosophila RNAi Screening Center, 2011)

Assay: 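Genome-wide knock-down for genes giving too much or too little stored lipid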 (primary screen)
System: Drosophila Kc167 embryonic cells
Reagent: long dsRNA against Drosophila genes, about 250 ng dsRNA per well
Time to read-out: 4 days
Conditions: cells fed 400 µM oleic acid bound to BSA
Measurement: 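Cells imaged and segmented; ratio of lipid droplet area to nuclear area, log-transformed, then normalised as a B-score over the screen; higher means more stored lipid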
Scale: droplet/nuclear area B-score: higher = more stored lipid (overstorage)
The deposit covers about 17,000 reagents; shown is a random part of those that have a named target and a result. 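Each column is one replicate's B-score; the combined score over replicates was not deposited, so single values may mislead.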 Names joined by + are all predicted targets of the reagent. Further read-outs or replicates are left out here.

CG42685 [DRSC01971] | droplet/nuclear area B-score, replicate 1 = -0.954
CG42675 [DRSC12157] | droplet/nuclear area B-score, replicate 1 = -0.0766
CG42675 [DRSC21868] | droplet/nuclear area B-score, replicate 1 = 4.06
PKD [DRSC16200] | droplet/nuclear area B-score, replicate 1 = 0.341
CG15337 [DRSC18020] | droplet/nuclear area B-score, replicate 1 = 0.461
CG15337 [DRSC22778] | droplet/nuclear area B-score, replicate 1 = -1.09
pug [DRSC17036] | droplet/nuclear area B-score, replicate 1 = 1.69
CG4854 [DRSC15663] | droplet/nuclear area B-score, replicate 1 = 0.525
CG15708 [DRSC06579] | droplet/nuclear area B-score, replicate 1 = 0.0481
Ars2 [DRSC04893] | droplet/nuclear area B-score, replicate 1 = -1.15
rho-6 [DRSC02588] | droplet/nuclear area B-score, replicate 1 = -1.06
CG13408 [DRSC13534] | droplet/nuclear area B-score, replicate 1 = 3.11
CG13408 [DRSC14584] | droplet/nuclear area B-score, replicate 1 = -0.909
Rbf [DRSC18704] | droplet/nuclear area B-score, replicate 1 = -1.37
Npc1a [DRSC03378] | droplet/nuclear area B-score, replicate 1 = -0.178
nkd [DRSC11376] | droplet/nuclear area B-score, replicate 1 = -0.977
Rel [DRSC16819] | droplet/nuclear area B-score, replicate 1 = -0.106
Acph-1 [DRSC14103] | droplet/nuclear area B-score, replicate 1 = 1.11

The list goes on, starting with the last 2 of the part before.
Rel [DRSC16819] | droplet/nuclear area B-score, replicate 1 = -0.106
Acph-1 [DRSC14103] | droplet/nuclear area B-score, replicate 1 = 1.11
CR31958 [DRSC00282] | droplet/nuclear area B-score, replicate 1 = -0.746
CR31958 [DRSC21858] | droplet/nuclear area B-score, replicate 1 = 1.43
p130CAS + Dic61B [DRSC08588] | droplet/nuclear area B-score, replicate 1 = -1.12
APC4 [DRSC18360] | droplet/nuclear area B-score, replicate 1 = 0.606
Eaat2 [DRSC00032] | droplet/nuclear area B-score, replicate 1 = 0.929
Eaat2 [DRSC00749] | droplet/nuclear area B-score, replicate 1 = -0.636
Vajk1 [DRSC01882] | droplet/nuclear area B-score, replicate 1 = 0.17
tbrd-2 [DRSC07020] | droplet/nuclear area B-score, replicate 1 = -1.19
upd1 [DRSC20358] | droplet/nuclear area B-score, replicate 1 = 0.868
CG32040 [DRSC22459] | droplet/nuclear area B-score, replicate 1 = -0.466
Cyp1 [DRSC20234] | droplet/nuclear area B-score, replicate 1 = -0.624
Cyfip [DRSC15679] | droplet/nuclear area B-score, replicate 1 = 1.94
HLH54F [DRSC07438] | droplet/nuclear area B-score, replicate 1 = -1.75
Ms [DRSC16041] | droplet/nuclear area B-score, replicate 1 = -0.799
repo [DRSC16369] | droplet/nuclear area B-score, replicate 1 = 2.74
repo [DRSC23108] | droplet/nuclear area B-score, replicate 1 = -1.82
CG12003 [DRSC08214] | droplet/nuclear area B-score, replicate 1 = -0.235
pins [DRSC17043] | droplet/nuclear area B-score, replicate 1 = 1.99
SC35 [DRSC02502] | droplet/nuclear area B-score, replicate 1 = 1.89
SC35 [DRSC03425] | droplet/nuclear area B-score, replicate 1 = 1.31
CG4631 [DRSC02766] | droplet/nuclear area B-score, replicate 1 = -0.155
CG4631 [DRSC22194] | droplet/nuclear area B-score, replicate 1 = 1.12
